PubChem BioAssay AID1159578 | Peter MacCallum Cancer Centre, 2015
This is an unselected part of about 18,000 reagents tested. About 1,030 of them (5.7%) count as active. 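Inactive calls also include pools with fewer than 3300 nuclei, whose migration was not assessed.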 The raw values are shown without normalisation. A number with no mark means an inactive call. Not all columns of the deposit are shown.

Test: 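siRNA pools altering how lymphatic endothelial cells close a scratch wound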 (primary screen)
Cells: human lymphatic endothelial cells
Knock-down reagent: siRNA pool against human genes, 40 nM
Timing: 48 h after transfection
Read-out: 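Cells stained with dye and imaged after a scratch; covered wound area and nuclei counted, duplicates averaged, migration set against mock wells and turned into a robust z-score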
Direction: migration robust z-score: higher = faster migration into the scratch; nuclei per well: higher = more cells in the well
Call rule: 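Pools averaging fewer than 3300 nuclei are never called; remaining pools count as changed when migration robust z lies outside -2 to 2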
Calls: active = migration changed; inactive = no migration change, or too few cells

LRRC8E [SID255360663] — migration robust z-score = 1.28; migration class with cell-count check = migration z between -2 and 2; enough cells; nuclei per well, duplicate mean = 5991
ZNF500 [SID255356637] — migration robust z-score = -0.79; migration class with cell-count check = migration z between -2 and 2; enough cells; nuclei per well, duplicate mean = 5562
MIMS1 [SID255362660] — migration robust z-score = 0.94; migration class with cell-count check = migration z between -2 and 2; enough cells; nuclei per well, duplicate mean = 5541
WSB1 [SID255356673] — migration robust z-score = 0.98; migration class with cell-count check = migration z between -2 and 2; enough cells; nuclei per well, duplicate mean = 6120
PLEKHB1 [SID255359624] — migration robust z-score = 0.04; migration class with cell-count check = migration z between -2 and 2; enough cells; nuclei per well, duplicate mean = 5983
HROB [SID255360147] — migration robust z-score = -4.56; migration class with cell-count check = under 3300 nuclei; migration not judged; nuclei per well, duplicate mean = 2084
ZNF493 [SID255364788] — migration robust z-score = 1.43; migration class with cell-count check = migration z between -2 and 2; enough cells; nuclei per well, duplicate mean = 6614
ATP2B1 [SID255348453] — migration robust z-score = -0.37; migration class with cell-count check = migration z between -2 and 2; enough cells; nuclei per well, duplicate mean = 6820
S1PR3 [SID255349426] — migration robust z-score = 0.7; migration class with cell-count check = migration z between -2 and 2; enough cells; nuclei per well, duplicate mean = 5421
S1PR3 [SID255364909] — migration robust z-score = -1.94; migration class with cell-count check = migration z between -2 and 2; enough cells; nuclei per well, duplicate mean = 6027
TSPAN3 [SID255354807] — migration robust z-score = 1.38; migration class with cell-count check = migration z between -2 and 2; enough cells; nuclei per well, duplicate mean = 6404
EPN3 [SID255358370] — migration robust z-score = -0.28; migration class with cell-count check = migration z between -2 and 2; enough cells; nuclei per well, duplicate mean = 5315
SUN5 [SID255363132] — migration robust z-score = 1.98; migration class with cell-count check = migration z between -2 and 2; enough cells; nuclei per well, duplicate mean = 6270
ORMDL2 [SID255357135] — migration robust z-score = 0.7; migration class with cell-count check = migration z between -2 and 2; enough cells; nuclei per well, duplicate mean = 4972
PAPLN [SID255361768] — migration robust z-score = -1.84; migration class with cell-count check = migration z between -2 and 2; enough cells; nuclei per well, duplicate mean = 5903
CEACAM7 [SID255348887] — migration robust z-score = 0.14; migration class with cell-count check = migration z between -2 and 2; enough cells; nuclei per well, duplicate mean = 4211
SLC12A9 [SID255359221] — migration robust z-score = -0.1; migration class with cell-count check = migration z between -2 and 2; enough cells; nuclei per well, duplicate mean = 4692
HMX1 [SID255350233] — migration robust z-score = -2.36 (active); migration class with cell-count check = migration z below -2; enough cells; nuclei per well, duplicate mean = 3674
CPNE2 [SID255364279] — migration robust z-score = -1.54; migration class with cell-count check = migration z between -2 and 2; enough cells; nuclei per well, duplicate mean = 6052
HMGB2 [SID255350220] — migration robust z-score = -0.09; migration class with cell-count check = migration z between -2 and 2; enough cells; nuclei per well, duplicate mean = 4854
NFE2L1 [SID255351219] — migration robust z-score = 0.55; migration class with cell-count check = migration z between -2 and 2; enough cells; nuclei per well, duplicate mean = 5282
TEX13B [SID255359036] — migration robust z-score = 0.96; migration class with cell-count check = migration z between -2 and 2; enough cells; nuclei per well, duplicate mean = 5989
NPM3 [SID255355019] — migration robust z-score = 1.66; migration class with cell-count check = migration z between -2 and 2; enough cells; nuclei per well, duplicate mean = 7144
HLA-F [SID255350213] — migration robust z-score = 0.4; migration class with cell-count check = migration z between -2 and 2; enough cells; nuclei per well, duplicate mean = 6164
APLF [SID255364042] — migration robust z-score = -1.38; migration class with cell-count check = migration z between -2 and 2; enough cells; nuclei per well, duplicate mean = 5554
H3C10 [SID255353500] — migration robust z-score = 1.11; migration class with cell-count check = migration z between -2 and 2; enough cells; nuclei per well, duplicate mean = 6476
CHCHD7 [SID255360232] — migration robust z-score = -1.02; migration class with cell-count check = migration z between -2 and 2; enough cells; nuclei per well, duplicate mean = 6068
